{"source": "paper PMC7045754", "molecular_target": "T1, GST-DIP2B-Caic (UniProt Q3UH60)", "T1 sequence": "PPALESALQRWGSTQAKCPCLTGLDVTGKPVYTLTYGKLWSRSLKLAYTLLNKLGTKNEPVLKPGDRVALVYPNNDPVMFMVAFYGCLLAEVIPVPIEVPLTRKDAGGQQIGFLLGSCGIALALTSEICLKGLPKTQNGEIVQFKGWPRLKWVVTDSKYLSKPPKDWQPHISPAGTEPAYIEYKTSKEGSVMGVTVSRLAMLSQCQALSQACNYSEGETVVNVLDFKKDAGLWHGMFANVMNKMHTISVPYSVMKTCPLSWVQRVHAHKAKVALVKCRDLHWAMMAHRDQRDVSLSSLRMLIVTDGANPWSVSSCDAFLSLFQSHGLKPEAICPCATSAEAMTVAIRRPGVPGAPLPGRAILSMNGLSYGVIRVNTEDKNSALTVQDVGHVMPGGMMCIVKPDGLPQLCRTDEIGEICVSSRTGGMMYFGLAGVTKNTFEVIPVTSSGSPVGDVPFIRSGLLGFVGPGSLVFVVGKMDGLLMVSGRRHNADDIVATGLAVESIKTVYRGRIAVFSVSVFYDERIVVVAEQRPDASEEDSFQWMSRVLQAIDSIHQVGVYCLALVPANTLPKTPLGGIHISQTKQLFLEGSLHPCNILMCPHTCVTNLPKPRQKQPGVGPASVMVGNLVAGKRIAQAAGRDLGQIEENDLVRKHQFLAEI", "experiment": "pull-down; purified tubulin incubated with GST-DIP2B-Caic and GST proteins as bait; Western blotting; both purified", "note": "These are yes or no findings as the source states them, for the method shown. Binding can be weak; no strength is given. Where a sequence is shown, tags or fusion partners need not be part of it."}
{"substance": "Purified tubulin", "values": [{"measurement": "binding", "value": "binds"}]}
